Assay results as given in paper PMC6736043.
Results are given in words; binding and its absence hold for the method and conditions named. Binding seen in cells or lysates may run through a third protein. Here binding means that the protein was enriched with, or labelled near, the bait; the list need not be complete.

Chains of the proteins cited; added tags and fusions are not shown.
UniProt A5YKK6: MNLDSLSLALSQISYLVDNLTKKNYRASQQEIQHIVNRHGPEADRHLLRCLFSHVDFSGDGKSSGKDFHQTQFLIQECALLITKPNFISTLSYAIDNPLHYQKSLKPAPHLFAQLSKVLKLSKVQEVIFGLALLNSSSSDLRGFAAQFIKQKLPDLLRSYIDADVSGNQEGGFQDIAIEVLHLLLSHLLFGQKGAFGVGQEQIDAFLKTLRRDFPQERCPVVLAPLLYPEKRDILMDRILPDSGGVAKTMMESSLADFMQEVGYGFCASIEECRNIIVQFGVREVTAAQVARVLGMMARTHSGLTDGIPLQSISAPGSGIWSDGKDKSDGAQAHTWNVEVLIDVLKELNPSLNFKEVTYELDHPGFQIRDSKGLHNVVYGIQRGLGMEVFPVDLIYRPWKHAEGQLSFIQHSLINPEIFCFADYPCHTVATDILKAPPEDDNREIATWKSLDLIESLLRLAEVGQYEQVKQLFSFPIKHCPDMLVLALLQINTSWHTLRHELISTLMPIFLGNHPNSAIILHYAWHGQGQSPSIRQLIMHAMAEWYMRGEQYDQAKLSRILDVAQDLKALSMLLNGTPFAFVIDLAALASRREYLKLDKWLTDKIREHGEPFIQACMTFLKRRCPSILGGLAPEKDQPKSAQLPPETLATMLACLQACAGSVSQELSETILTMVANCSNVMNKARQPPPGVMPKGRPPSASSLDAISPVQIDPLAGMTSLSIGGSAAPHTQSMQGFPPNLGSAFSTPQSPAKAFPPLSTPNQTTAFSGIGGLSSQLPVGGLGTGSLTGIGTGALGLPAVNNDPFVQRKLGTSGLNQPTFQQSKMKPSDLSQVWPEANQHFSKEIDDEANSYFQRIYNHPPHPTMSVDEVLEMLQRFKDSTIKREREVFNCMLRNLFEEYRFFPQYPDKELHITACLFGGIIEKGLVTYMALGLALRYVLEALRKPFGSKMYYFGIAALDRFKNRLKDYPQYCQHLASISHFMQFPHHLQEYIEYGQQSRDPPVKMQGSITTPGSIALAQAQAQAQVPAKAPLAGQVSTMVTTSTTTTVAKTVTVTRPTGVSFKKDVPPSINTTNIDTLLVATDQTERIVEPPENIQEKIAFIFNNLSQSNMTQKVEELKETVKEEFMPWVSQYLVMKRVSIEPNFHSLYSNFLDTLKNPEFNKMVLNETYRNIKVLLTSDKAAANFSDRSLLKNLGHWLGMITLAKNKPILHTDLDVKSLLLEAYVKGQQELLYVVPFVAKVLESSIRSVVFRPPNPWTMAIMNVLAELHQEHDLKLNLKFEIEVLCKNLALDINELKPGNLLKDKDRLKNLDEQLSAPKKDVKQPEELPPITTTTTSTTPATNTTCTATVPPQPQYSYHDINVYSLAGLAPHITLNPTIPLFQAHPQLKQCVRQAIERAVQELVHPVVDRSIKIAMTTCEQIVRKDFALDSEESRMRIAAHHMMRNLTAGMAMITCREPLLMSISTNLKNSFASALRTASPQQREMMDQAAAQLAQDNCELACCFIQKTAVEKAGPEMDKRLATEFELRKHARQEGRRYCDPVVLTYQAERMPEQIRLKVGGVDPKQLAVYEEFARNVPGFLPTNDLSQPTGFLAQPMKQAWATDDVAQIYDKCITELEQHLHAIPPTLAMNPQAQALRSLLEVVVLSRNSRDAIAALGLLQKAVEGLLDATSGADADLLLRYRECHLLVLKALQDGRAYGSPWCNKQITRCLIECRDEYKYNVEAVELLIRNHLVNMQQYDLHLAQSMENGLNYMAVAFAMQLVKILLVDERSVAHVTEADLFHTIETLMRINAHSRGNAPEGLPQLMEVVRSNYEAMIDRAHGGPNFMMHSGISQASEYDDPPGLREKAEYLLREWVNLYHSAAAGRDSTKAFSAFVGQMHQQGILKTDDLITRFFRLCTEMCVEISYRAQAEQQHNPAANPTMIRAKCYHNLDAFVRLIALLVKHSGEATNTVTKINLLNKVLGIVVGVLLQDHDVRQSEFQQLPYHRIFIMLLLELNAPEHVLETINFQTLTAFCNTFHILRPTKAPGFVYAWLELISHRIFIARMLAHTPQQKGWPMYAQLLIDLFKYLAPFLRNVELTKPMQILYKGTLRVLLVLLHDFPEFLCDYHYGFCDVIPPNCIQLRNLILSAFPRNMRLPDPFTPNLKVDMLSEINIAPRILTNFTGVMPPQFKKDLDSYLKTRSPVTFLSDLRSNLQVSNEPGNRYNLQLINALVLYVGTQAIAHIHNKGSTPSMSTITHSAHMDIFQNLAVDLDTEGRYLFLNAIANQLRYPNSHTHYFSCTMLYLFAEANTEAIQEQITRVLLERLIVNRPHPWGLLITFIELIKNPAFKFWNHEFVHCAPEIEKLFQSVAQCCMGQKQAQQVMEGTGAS
UniProt Q14240: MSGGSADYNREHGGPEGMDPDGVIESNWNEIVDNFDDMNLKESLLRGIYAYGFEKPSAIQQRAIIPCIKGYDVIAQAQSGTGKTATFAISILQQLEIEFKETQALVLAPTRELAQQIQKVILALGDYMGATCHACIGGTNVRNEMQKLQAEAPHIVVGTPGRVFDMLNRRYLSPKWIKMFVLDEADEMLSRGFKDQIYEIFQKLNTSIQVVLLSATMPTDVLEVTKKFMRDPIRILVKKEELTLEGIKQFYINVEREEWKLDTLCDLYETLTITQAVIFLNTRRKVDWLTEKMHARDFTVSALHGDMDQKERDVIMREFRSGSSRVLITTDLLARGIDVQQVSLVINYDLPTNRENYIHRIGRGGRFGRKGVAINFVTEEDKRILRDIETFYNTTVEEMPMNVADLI
UniProt P53621: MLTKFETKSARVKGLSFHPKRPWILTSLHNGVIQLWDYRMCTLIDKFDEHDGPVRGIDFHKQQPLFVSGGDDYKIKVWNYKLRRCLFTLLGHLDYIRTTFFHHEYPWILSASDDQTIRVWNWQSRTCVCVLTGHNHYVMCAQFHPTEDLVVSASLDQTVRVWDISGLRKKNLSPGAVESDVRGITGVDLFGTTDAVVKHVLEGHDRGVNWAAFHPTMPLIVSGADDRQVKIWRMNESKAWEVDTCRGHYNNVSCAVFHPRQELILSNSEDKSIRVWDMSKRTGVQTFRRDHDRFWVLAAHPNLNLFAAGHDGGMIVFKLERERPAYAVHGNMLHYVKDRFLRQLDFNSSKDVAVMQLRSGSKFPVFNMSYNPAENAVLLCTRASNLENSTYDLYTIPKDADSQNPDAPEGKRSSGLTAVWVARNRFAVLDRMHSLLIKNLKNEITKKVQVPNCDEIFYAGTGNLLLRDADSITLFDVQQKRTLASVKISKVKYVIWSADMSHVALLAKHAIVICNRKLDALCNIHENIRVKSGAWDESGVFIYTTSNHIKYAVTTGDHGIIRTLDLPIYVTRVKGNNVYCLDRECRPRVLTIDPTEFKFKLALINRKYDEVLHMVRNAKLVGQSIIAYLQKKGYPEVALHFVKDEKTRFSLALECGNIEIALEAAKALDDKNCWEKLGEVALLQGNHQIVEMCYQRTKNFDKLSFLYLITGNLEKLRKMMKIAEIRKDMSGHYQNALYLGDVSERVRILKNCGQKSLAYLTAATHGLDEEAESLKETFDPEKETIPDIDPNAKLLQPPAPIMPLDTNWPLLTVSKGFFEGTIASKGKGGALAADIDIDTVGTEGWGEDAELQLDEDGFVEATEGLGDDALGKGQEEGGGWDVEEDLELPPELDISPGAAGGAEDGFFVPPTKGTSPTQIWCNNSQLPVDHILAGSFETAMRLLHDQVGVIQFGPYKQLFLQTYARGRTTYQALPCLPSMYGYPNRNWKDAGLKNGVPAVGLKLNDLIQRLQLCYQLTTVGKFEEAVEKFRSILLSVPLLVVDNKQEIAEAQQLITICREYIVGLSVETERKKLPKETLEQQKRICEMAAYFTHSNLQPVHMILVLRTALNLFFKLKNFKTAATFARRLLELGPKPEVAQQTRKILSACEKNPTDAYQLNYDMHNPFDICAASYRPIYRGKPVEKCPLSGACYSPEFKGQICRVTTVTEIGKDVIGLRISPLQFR
UniProt Q9C0C2: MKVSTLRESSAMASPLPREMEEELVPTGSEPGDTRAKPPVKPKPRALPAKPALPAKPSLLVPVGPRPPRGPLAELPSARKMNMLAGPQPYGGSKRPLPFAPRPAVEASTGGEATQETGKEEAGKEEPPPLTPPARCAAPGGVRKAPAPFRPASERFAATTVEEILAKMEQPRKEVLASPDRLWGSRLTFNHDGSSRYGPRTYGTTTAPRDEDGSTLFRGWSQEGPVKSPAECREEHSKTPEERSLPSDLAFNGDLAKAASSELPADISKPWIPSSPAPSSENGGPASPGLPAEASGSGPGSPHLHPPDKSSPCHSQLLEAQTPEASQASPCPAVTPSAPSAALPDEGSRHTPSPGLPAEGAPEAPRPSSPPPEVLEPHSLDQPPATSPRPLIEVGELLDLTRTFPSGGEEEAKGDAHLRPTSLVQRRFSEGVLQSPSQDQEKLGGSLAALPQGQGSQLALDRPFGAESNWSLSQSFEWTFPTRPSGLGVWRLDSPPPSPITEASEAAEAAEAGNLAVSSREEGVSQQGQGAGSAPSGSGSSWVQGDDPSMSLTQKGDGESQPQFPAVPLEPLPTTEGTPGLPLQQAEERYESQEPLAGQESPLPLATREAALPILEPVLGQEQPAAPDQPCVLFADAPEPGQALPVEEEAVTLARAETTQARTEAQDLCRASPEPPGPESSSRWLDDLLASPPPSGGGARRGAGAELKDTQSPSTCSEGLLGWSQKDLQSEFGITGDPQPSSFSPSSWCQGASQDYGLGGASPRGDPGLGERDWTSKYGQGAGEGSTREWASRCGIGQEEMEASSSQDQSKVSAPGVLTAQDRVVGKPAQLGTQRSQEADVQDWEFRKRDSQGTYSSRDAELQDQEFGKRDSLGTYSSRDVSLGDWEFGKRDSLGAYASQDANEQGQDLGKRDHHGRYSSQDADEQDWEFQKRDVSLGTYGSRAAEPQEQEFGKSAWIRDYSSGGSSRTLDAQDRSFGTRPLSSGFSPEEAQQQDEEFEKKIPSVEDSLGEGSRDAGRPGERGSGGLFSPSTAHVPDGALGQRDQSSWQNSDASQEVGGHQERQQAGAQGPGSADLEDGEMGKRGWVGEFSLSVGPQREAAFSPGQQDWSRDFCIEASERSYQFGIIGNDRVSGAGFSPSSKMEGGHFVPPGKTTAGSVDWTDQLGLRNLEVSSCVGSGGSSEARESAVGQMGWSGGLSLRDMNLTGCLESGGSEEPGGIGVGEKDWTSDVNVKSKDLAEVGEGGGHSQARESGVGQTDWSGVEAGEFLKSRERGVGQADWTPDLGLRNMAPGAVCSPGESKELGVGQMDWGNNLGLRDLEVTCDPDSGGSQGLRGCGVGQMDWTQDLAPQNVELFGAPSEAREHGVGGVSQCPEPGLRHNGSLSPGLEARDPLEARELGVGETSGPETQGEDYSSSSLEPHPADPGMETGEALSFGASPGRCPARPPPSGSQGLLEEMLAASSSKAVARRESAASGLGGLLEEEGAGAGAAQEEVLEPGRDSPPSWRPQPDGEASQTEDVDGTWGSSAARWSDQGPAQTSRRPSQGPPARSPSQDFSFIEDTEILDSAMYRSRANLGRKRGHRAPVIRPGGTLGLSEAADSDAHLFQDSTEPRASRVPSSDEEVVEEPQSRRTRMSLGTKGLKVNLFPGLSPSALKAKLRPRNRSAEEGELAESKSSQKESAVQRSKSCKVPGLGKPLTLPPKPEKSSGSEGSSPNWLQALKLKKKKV
UniProt P11940: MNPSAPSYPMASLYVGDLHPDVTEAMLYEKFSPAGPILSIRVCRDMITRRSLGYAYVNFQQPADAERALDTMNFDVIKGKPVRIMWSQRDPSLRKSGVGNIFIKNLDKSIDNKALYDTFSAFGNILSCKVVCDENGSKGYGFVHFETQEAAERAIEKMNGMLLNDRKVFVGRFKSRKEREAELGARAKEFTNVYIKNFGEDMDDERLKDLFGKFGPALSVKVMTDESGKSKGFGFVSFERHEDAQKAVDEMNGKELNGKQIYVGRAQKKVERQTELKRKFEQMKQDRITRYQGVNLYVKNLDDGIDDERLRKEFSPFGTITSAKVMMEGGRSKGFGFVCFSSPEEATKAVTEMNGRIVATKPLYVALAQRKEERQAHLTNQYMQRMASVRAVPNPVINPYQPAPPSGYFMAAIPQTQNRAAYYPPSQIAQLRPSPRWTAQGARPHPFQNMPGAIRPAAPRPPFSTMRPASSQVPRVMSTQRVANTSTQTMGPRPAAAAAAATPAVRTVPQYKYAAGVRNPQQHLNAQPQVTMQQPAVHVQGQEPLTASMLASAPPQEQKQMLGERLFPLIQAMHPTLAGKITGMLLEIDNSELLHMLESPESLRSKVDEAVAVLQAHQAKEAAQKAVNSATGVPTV

How the values were obtained:
[1] = target: CNOT1 (human (endogenous in HeLa)) (UniProt A5YKK6); experiment: affinity purification with mass spectrometry; CNOT1 and eIF4A2 immunoprecipitations from gel filtration fractions 30–32 of cytoplasmic HeLa lysate, IgG control; CNOT1 IP repeated with peptide elution; LC–MS/MS
[2] = target: eIF4A2 (human (endogenous in HeLa and HEK293)) (UniProt Q14240); experiment: as above

COPA (from UniProt P53621 1-1224) was tested, and the binding [1] was “binds” and the binding [2] was “binds”.

With TAB182 (from UniProt Q9C0C2 1-1729) the binding [1] was “binds” and the binding [2] was “binds”.

With RFC4 (from UniProt P35249 1-363) the binding [1] was “binds” and the binding [2] was “binds”.

In the case of CNOT3 (from UniProt O75175 1-753), the binding [1] was “binds” and the binding [2] was “binds”.

With PABP1 (from UniProt P11940 1-636) the binding [1] was “binds” and the binding [2] was “binds”.
